Experimental data reported in the supplement of paper PMC6078165.
The reference is the same well before dosing, and untreated signal decays as well.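 Labels refer to human fibroblasts, largely primary: uterine (C12385, HUF), lung (H6013), bone (Hs27A), adrenal (HADF), skin (WS1), plus mammary HMF and breast cancer-associated Hs343T. Cancer lines are basal-like or mesenchymal-like triple-negative breast cancer. The paper counts as hits responses shifting over 3x the replicate standard deviation. The tissue of the other fibroblasts is not given here.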

System: HCC1143
Assay: relative JC-1 red fluorescence (viability) vs pre-drug, coculture with fibroblast (fraction); higher = more viable cancer cells
Conditions: 0.1 µM
Protocol: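 JC-1 labelled TNBC cells cocultured 1:1 (1,500 cells each) with CellTrace Violet stained primary or stromal fibroblasts in 384-well plates in FluoroBrite medium, treated with one of 42 anticancer drugs at 0.1, 1, 10 or 100 uM. JC-1 red fluorescence (mitochondrial integrity in cancer cells only) was read by plate reader every 8 h for 72 h. Values are normalised to each well's pre-drug value. The stock of one drug was tenfold lower, so its dose labels may be too high.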

C[C@]12CC[C@@H]3c4ccc(O)cc4C[C@@H](CCCCCCCCC[S+]([O-])CCCC(F)(F)C(F)(F)F)[C@H]3[C@@H]1CC[C@@H]2O (some centres undefined) [Fulvestrant]
relative JC-1 red fluorescence
Conditions | 8 h | 16 h | 24 h | 32 h | 40 h | 48 h | 56 h | 64 h | 72 h
coculture fibroblast: C12385 | 0.855 | 0.771 | 0.683 | 0.606 | 0.539 | 0.49 | 0.4358 | 0.3886 | 0.3685
coculture fibroblast: H6013 | 0.801 | 0.727 | 0.706 | 0.707 | 0.629 | 0.606 | 0.567 | 0.536 | 0.514
coculture fibroblast: H6019 | 0.805 | 0.708 | 0.659 | 0.6 | 0.558 | 0.534 | 0.476 | 0.437 | 0.402
coculture fibroblast: H6076 | 0.804 | 0.765 | 0.705 | 0.69 | 0.625 | 0.6149 | 0.5824 | 0.559 | 0.576
coculture fibroblast: H6231 | 0.8075 | 0.807 | 0.723 | 0.629 | 0.632 | 0.605 | 0.5674 | 0.5238 | 0.499
coculture fibroblast: HADF | 0.735 | 0.6563 | 0.62333 | 0.627 | 0.541 | 0.5177 | 0.4802 | 0.447 | 0.439
coculture fibroblast: HCFa | 0.776 | 0.69 | 0.651 | 0.631 | 0.542 | 0.51 | 0.47 | 0.43 | 0.403
coculture fibroblast: HCPF | 0.802 | 0.775 | 0.697 | 0.643 | 0.592 | 0.552 | 0.508 | 0.475 | 0.464
coculture fibroblast: HHSteC | 0.836 | 0.756 | 0.722 | 0.7 | 0.622 | 0.586 | 0.548 | 0.518 | 0.478
coculture fibroblast: HMF | 0.804 | 0.813 | 0.747 | 0.707 | 0.665 | 0.644 | 0.608 | 0.585 | 0.568
coculture fibroblast: HPFa | 0.918 | 0.839 | 0.784 | 0.691 | 0.618 | 0.581 | 0.507 | 0.449 | 0.404
coculture fibroblast: HUF | 0.906 | 0.815 | 0.752 | 0.66 | 0.593 | 0.5585 | 0.5073 | 0.471 | 0.438
coculture fibroblast: Hs5 | 0.846 | 0.801 | 0.758 | 0.7544 | 0.6535 | 0.6298 | 0.606 | 0.581 | 0.587
coculture fibroblast: Hs27A | 0.721 | 0.636 | 0.585 | 0.602 | 0.477 | 0.453 | 0.403 | 0.362 | 0.339
coculture fibroblast: Hs343T | 0.793 | 0.8271 | 0.757 | 0.669 | 0.653 | 0.613 | 0.561 | 0.533 | 0.512
coculture fibroblast: WS1 | 0.816 | 0.736 | 0.672 | 0.59 | 0.536 | 0.50413 | 0.4603 | 0.429 | 0.408
